Data published in publication PMC7316351, “Cancer-associated mutations in the iron-sulfur domain of FANCJ affect G-quadruplex metabolism”.

How the values were obtained:
Test in all cases: EMSA
Conditions in all cases: 10/40/70 nM protein, 5 nM DNA, no ATP; EMSA: 15 mM Na-phosphate pH 7.4, 45 mM NaCl, 3% glycerol, 40 mM Tris-HCl pH 7.4, 25 mM KCl, 100 ng/ul BSA, 2 mM DTT, 0.1 mM EDTA; 30 min at 25 C; 5% PAGE in 1x TBE; recombinant protein; protein details: N-terminal Flag; label: 5'-FAM on strand 1
FANCJ A349P = biological target: T1, FANCJ A349P (UniProt Q9BX63)
T1 sequence (looked up, limits assumed): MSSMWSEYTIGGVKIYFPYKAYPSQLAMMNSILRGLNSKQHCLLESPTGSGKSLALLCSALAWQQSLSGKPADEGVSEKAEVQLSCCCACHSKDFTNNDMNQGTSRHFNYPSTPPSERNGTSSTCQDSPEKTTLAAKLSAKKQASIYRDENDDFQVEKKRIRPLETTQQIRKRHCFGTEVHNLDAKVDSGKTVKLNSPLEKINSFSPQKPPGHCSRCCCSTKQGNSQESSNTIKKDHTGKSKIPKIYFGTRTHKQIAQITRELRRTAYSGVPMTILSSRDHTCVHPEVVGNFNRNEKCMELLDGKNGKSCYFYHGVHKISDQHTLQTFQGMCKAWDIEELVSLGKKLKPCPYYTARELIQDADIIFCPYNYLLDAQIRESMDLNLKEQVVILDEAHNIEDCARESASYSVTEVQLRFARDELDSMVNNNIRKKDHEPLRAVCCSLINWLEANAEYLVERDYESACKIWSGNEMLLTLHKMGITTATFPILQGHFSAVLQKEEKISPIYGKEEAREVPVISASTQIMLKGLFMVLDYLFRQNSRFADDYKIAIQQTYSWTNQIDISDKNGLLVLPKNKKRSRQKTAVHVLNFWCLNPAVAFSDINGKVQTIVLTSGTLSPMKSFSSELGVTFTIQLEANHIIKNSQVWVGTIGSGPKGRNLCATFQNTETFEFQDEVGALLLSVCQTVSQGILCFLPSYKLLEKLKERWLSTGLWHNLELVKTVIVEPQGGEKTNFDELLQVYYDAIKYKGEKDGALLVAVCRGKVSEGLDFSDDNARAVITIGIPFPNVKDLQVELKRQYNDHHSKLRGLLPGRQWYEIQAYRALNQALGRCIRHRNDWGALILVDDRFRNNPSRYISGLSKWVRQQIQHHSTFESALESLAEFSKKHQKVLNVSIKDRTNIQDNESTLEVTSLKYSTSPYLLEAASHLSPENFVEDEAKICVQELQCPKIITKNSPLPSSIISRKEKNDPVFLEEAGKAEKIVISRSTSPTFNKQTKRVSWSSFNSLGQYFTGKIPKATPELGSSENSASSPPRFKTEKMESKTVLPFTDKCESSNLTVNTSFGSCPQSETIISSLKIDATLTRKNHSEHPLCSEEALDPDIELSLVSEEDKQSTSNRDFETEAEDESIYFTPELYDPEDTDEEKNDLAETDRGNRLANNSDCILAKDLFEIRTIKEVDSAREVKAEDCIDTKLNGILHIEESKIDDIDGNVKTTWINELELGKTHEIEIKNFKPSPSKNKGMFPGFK

FANCJ C283R = biological target: T2, FANCJ C283R (UniProt Q9BX63)
T2 sequence (looked up, limits assumed): T1 sequence (looked up, limits assumed) with C283R, P349A

FANCJ C283S = biological target: T3, FANCJ C283S (UniProt Q9BX63)
T3 sequence (looked up, limits assumed): T1 sequence (looked up, limits assumed) with C283S, P349A

FANCJ L340F = biological target: T4, FANCJ L340F (UniProt Q9BX63)
T4 sequence (looked up, limits assumed): T1 sequence (looked up, limits assumed) with L340F, P349A

FANCJ WT = biological target: T5, FANCJ WT (UniProt Q9BX63)
T5 sequence (looked up, limits assumed): T1 sequence (looked up, limits assumed) with P349A

Measured: binding result

GACGCTGCCGAATTCTACCAGTGCCTTGCTAGGACATCTTTG / TTTTTTTTTTTTTTTTTTTTTTTTTTTTTTTTTTTTGGTAGAATTCGGCAGCGT [Y-structure (XO1/sDO1)]
binds: all assays above

Residue numbers refer to the chain shown, from its start. Construct, isoform or probe ends are uncertain for at least one entry. At least one verdict was read from the data and is not stated in words by the source. Protein sequences can lack the tags named with them.
